PubChem BioAssay AID1347426 (Functional Genomics Laboratory (NCATS/FGL), 2020)
In all, about 31,000 sequences went through this assay and about 1,400 (4.5%) were called active.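 Rule for the calls: active = median seed-adjusted z-score above 1 or below -1; inactive = the rest.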 Some of the results follow.

Experiment: Novel Modifiers of Survival Motor Neuron (SMN) Protein: Gene Identification via Genome-wide siRNA Screen;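 note: luminescence tracks full-length SMN protein made from the SMN2 reporter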
Conditions: HEK293T SMN2-luciferase reporter, siRNA knockdown, 72 h; actives lie on both sides
Procedure, shortened: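 Luciferase signal, proportional to full-length SMN made from an SMN2 cDNA reporter in stable HEK293T cells, was read 72 h after siRNA reverse transfection. Values were expressed as MAD scores after non-targeting-control normalization and log10 conversion; seed analysis flagged off-targets.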

| Sequence | median seed-adjusted z-score |
| --- | --- |
| CAGUGCAACCUGGAGAGAATT against NRBP2 | inactive: 0.093 |
| GCUUAGCAACCUGGAGUUUTT against HAGHL | inactive: -0.334 |
| CGAUGACAACGGAUACCCATT against ITGA2B | inactive: 0.172 |
| CCAAGAAAAAGAGAUCGUATT against ZNF643 | inactive: -0.0134 |
| GCAUACAAGUGACAAUGGUTT against RNF128 | inactive: -0.377 |
| CGAGCCCAAGGAACAUGAATT against NKX2-3 | inactive: -0.2 |
| AGUACAACCUGGUGACGCATT against ZNF710 | inactive: 0 |
| AUACUAAAGGUAAAUCAUATT against ZNF705A | inactive: 0.669 |
| CCAGUUCGACCUGAACAAATT against ZBTB41 | inactive: 0.173 |
| CUAUUGGUGUGGUGCUGAATT against FCRL4 | inactive: -0.39 |
| CCAGCUUCUUUGACUCAGATT against DVL3 | inactive: -0.57 |
| CCAAGGAGGUGCACUAUAATT against FHL1 | inactive: 0.574 |
| GGUGUACGAUUUGACCAAATT against CYB5A | inactive: 0.226 |
| CGACUGCCUUGUCUAUGCATT against ZNRF2 | inactive: 0 |
| CUUGGACACUGAAAACGCATT against ITGAM | active: -1.56 |
| AGACUAGGGCAGUUCCUUATT against KCNK5 | inactive: 0 |
| CUACUAUUCAGAGACAACATT against GPR3 | inactive: 0 |
| GGGAUGCUCUACUACCAGATT against NCF2 | inactive: -0.201 |
| GCCCAUUAAUAUUAUAGGUTT against LAP3 | inactive: 0.0175 |
| GAAGCUACAUGGGAAGUGUTT against SIRT7 | inactive: -0.427 |
| CAACCUAUAAAAUACUCGATT against SLC24A1 | inactive: 0.372 |
| GAACCCUCCUAAAUCCAUATT against DUSP3 | inactive: -0.00768 |

| Sequence | median seed-adjusted z-score |
| --- | --- |
| CCUUCAUCCGGAAAUUAAATT against ZIM3 | inactive: -0.02 |
| GGAUCAUACUAGAAGACUATT against TREM1 | inactive: 0 |
| GAGAAGAACCUGUUCGUCATT against SLC9A3 | inactive: 0.422 |
| CAUAGAUACUUACGGAAAATT against SLC9A4 | inactive: 0.693 |
| CAAACCUAAUUGAUCAGCATT against BHLHB2 | inactive: 0 |
| GGCCUGAUGUUGGUCAAGATT against NOD2 | inactive: 0.129 |
| CCUUUGAGGUGUACACGGATT against CENTD2 | inactive: -0.305 |
| GGACCGCUGUCUAUGACAATT against LRFN2 | inactive: 0 |
| CAUCUAUAUAGGGAAAACATT against LILRA2 | inactive: -0.103 |
| GGACUACACCAGGUUCCAATT against STK10 | inactive: 0.0138 |
| GGAAGAUCGAAAGUGCGAATT against GZMB | inactive: -0.0378 |
| CCAAAGAACAUUUGACUCATT against KLF16 | inactive: 0.461 |
| CCUCCAGUCUAGUUGAUCATT against ZNF560 | inactive: 0.0927 |
| GAAGUUCAUGGAUCAACAUTT against NUDC | inactive: -0.227 |
| GCAAACCAGUGAACACCUUTT against RNASE1 | inactive: 0.085 |
| GCAACAAGGUCAUUAGAUATT against FSD1L | inactive: 0.166 |
| GACCUUCCAUAUGUCCAAATT against DUSP19 | inactive: 0.343 |
| CAACUUUGAAUAUACCCUATT against GRHL1 | inactive: 0.115 |
| AGACUAUCGUGGACGAAAATT against PHOSPHO1 | inactive: -0.296 |
| GCACAAGUGUAUUCAACCATT against COPS3 | inactive: 0.176 |
| GUAUCGAGAUCGUUAUGAUTT against EIF4B | inactive: -0.374 |
| CAAUAGGUUAUGUUAUUCATT against PLSCR1 | inactive: 0.661 |

| Sequence | median seed-adjusted z-score |
| --- | --- |
| GGAGCCUAUCAUAACCUUATT against ZNF484 | inactive: 0.2 |
| CAAUUACCCGGACUAUGUUTT against CPT1C | inactive: -0.458 |
| CCAUCAACCUGUACCCUCUTT against NUDT21 | inactive: 0.0851 |
| CCAAUAUCAUAAUAGGCAUTT against ADAM22 | inactive: 0.292 |
| GCUCAGAAAAUAGUCUAUATT against RGS13 | inactive: 0.0487 |
| GUAGGACUGUAGACAGUGATT against FGFR2 | inactive: 0.158 |
| CAAGAAGACGGGAUCAGAATT against MYRIP | inactive: 0.141 |
| GCAGUCAACUCAAAUGCAATT against ADARB2 | inactive: -0.249 |
| GAGAGUAUCGAAACCGUUUTT against GNPTAB | inactive: 0.296 |
| CCUUGGGAAUUAUCCACCATT against MPZL1 | inactive: 0.376 |
| GAAUCAAUAGAGCCACGAATT against GGA1 | inactive: 0.172 |
| GCAACUUCAGUGUCAUUCUTT against PTGER2 | inactive: 0 |
| GCAUUUGCCCAGUUCAUGATT against RBM28 | inactive: 0.649 |
| GCAUUUACCAUAAAUCCGATT against PCDHA13 | inactive: -0.624 |
| GAAACUUUGUUCACCGAUUTT against DACH2 | inactive: -0.00102 |
| AGCUCCACGUCUACAAGAATT against ENPP7 | inactive: -0.478 |
| AAACCGUGGAGUAAACUCATT against ONECUT2 | inactive: -0.696 |
| GGAUGAUAAUGCUAAUCCATT against PPP1R3A | inactive: -0.241 |
| CGACCCAGCCCUGAUCUUATT against CHST3 | inactive: 0.319 |
| GAAGCAUGCAAGACAGAAATT against UBE2T | inactive: -0.0157 |
| GGCGACUGUUUAUACAUGATT against ALDH7A1 | inactive: -0.406 |
| CGUCUUGCCUUUGUGCUGATT against CHMP1A | inactive: 0 |

| Sequence | median seed-adjusted z-score |
| --- | --- |
| GCGCAGCUACUUUUCCCAATT against DAZAP1 | inactive: 0 |
| CCGUCACAGUAGAGACUAUTT against LRRC4C | inactive: -0.122 |
| GCAUUUGUAGGGUUACGGATT against GABRG1 | inactive: 0.312 |
| ACCUGAUCAUGCGCCCUGATT against WFIKKN1 | inactive: 0 |
| CCCACUACAGAAGACUUAUTT against SLC4A1 | inactive: -0.861 |
| GAAGAGCUGUGAAAGGCAATT against ZNF274 | inactive: 0.452 |
| GCAUGGAUAUUUUAAGGGUTT against NELL2 | inactive: 0.0918 |
| CCUUCUAAUUGAUAAGGCATT against ZNF611 | inactive: -0.0392 |
| AAGGCAUCGUGAUAUCACUTT against SLC10A1 | inactive: -0.19 |
| GCUUAUUGUUAUUAGAUCUTT against EIF2S3 | inactive: -0.0572 |
| GUACGUUAGUGUUCGCGAUTT against SUB1 | inactive: -0.571 |
| AGUAUUUGUUGGUUCAUAATT against FXC1 | inactive: -0.00735 |
| GCAUUCUACUCAGUGCUCUTT against MFSD9 | inactive: 0.36 |
| CGAGAGAGGUUCUUAUAGATT against MTAP | inactive: -0.0621 |
| CCUAAUGACAGAAUGAAUATT against SIVA1 | inactive: 0.0451 |
| CGAUUUGAAGGUCCAUAUATT against DNAJC2 | inactive: -0.0357 |
| CUGCUAGUCUGUCUCCAAATT against SPINK7 | inactive: -0.409 |
| GGAGAUAUGUAUCCUAUCATT against KCNG3 | inactive: 0.0832 |
| GCAACAAGGUGGACUCCUATT against HSPG2 | inactive: 0.478 |
| CAGGCUACAUCUUUGCUUUTT against PIGA | inactive: -0.0514 |
| CAAGCAUAGUCUAGGCAAATT against PPARGC1B | inactive: -0.366 |
| CGUAAGAACUGAGAUAGGATT against CAMK4 | inactive: 0 |

Another view of part of the listing above.
Sequence | median seed-adjusted z-score
GCGCAGCUACUUUUCCCAATT against DAZAP1 | inactive: 0
CCGUCACAGUAGAGACUAUTT against LRRC4C | inactive: -0.122

Some values from the entries so far:
For median seed-adjusted z-score, GCGCAGCUACUUUUCCCAATT against DAZAP1 shows inactive: 0
For median seed-adjusted z-score, GCAUUCUACUCAGUGCUCUTT against MFSD9 shows inactive: 0.36

Next records

| Sequence | median seed-adjusted z-score |
| --- | --- |
| GUCCUAACCUGAUUAUAAATT against REXO2 | inactive: -0.0419 |
| GAAUACCGACAAUACACUATT against VDAC1 | inactive: 0.133 |
| GAUGAUAUCCUACUAGGCATT against CD302 | inactive: 0.0818 |
| GCAGUCUACCAAUCGAAAATT against CGN | inactive: 0.33 |
| GGCAUUAUGUGAAGGCGAATT against SMC5 | inactive: 0.0666 |
| GAUUUUCGGCAGAAACGUATT against ARHGEF12 | inactive: 0.136 |
| CGUCAACUCUCAGAUCCAATT against SNX8 | inactive: 0.115 |
| CUGUUUCGAUGGAUCGGCATT against SLC28A1 | inactive: 0.129 |
| CUGGAAUGGUUGUCUGGUATT against SERTAD1 | inactive: 0.376 |
| CACUAAUCGUGAGCAUGGATT against XRCC5 | active: -1.11 |
| CAUCCGCACCUACACCUAUTT against GBA | inactive: -0.492 |
| CCGAAGUAUGUGGAAUUUATT against FUCA2 | inactive: 0.562 |
| GUUUGUCUACAGUUCGUAATT against ABCB1 | inactive: -0.384 |
| GGCGGUAUAUGACAACCAATT against PCDH9 | inactive: 0.165 |
| GGAGCAUCGUGUGACCAUUTT against NLP | inactive: -0.186 |
| AGGCAACCAUUGGGAUUGATT against RAB6B | inactive: 0 |
| GCCUCCUUAGUAUUCCAAATT against PRKRA | inactive: 0.00259 |
| GGAUAUUCAGGUUCGUGAATT against EIF4A3 | inactive: 0.126 |
| GGGCUUGAAUCUCAAUACATT against PLA2G4A | inactive: 0.608 |
